PubChem BioAssay AID1259308 – NCATS, 2017
The deposit covers about 59,000 reagents; below is a random part of them. In the full data, about 1,510 (2.6%) got an active call. 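Calls use total luciferase alone and ignore viability, so some active siRNAs may act by altering cell number.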 A number with no mark means an inactive call. Reagents against one gene are numbered here. Not all columns of the deposit are shown.

Assay: 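Candidate targets for better recombinant protein yield in mammalian cells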 (primary screen)
Cell system: human HEK293 embryonic kidney cells stably expressing firefly luciferase (HEK-CMV-Luc2-Hygro)
Reagents: single siRNA against human genes, 0.8 pmol siRNA per well
Duration: 72 h
Read-out: 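Reporter luminescence and viable-cell signal on separate replicate plates, given as percent of non-targeting control and median/MAD z-scores, plus per-cell luciferase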
Scale: total luciferase, z-score: higher = more reporter protein produced
Hit rule: 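An siRNA counts as active if its total luciferase robust z-score exceeds 3; genes with two or more such siRNAs out of three were retested with fresh siRNAs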
Meaning of the calls: active = raised luciferase; inactive = no rise

For PNPT1 #1, how do the results read?
total luciferase, z-score: 0.0423

For PNPT1 #2, how do the results read?
total luciferase, z-score: -0.257

How did the screen score PNPT1 #3?
total luciferase, z-score: -0.871

With TXNDC8 #1, what was measured?
total luciferase, z-score: -0.605

Which result is listed for TXNDC8 #2?
total luciferase, z-score: -0.00347

With TXNDC8 #3, what was measured?
total luciferase, z-score: -0.535

For TMEM126A #1, what does the deposit list?
total luciferase, z-score: 1.89

For TMEM126A #2, what was measured?
total luciferase, z-score: 0.968

With TMEM126A #3, how do the results read?
total luciferase, z-score: 0.978

For MND1 #1, what was measured?
total luciferase, z-score: -1.07

For MND1 #2, what does the deposit list?
total luciferase, z-score: -0.0946

What is on record for MND1 #3?
total luciferase, z-score: -1.32

With KLK13 #1, what does the deposit list?
total luciferase, z-score: -0.434

With KLK13 #2, how do the results read?
total luciferase, z-score: -0.156

What is on record for KLK13 #3?
total luciferase, z-score: -0.46

Which result is listed for ZNF660 #1?
total luciferase, z-score: 0.432

What is on record for ZNF660 #2?
total luciferase, z-score: -1.2

Which result is listed for ZNF660 #3?
total luciferase, z-score: -0.277

How did the screen score ADGRL1 #1?
total luciferase, z-score: -0.565

What is on record for ADGRL1 #2?
total luciferase, z-score: -0.307

For ADGRL1 #3, what does the deposit list?
total luciferase, z-score: 1.07

Which result is listed for APP #1?
total luciferase, z-score: 0.787

How did the screen score APP #2?
total luciferase, z-score: -0.17

Which result is listed for APP #3?
total luciferase, z-score: 0.914

How did the screen score CDC5L #1?
total luciferase, z-score: -0.617

For CDC5L #2, what was measured?
total luciferase, z-score: 3.94 (active)

How did the screen score CDC5L #3?
total luciferase, z-score: 1.72

With MRPL1 #1, how do the results read?
total luciferase, z-score: 0.485

What did the screen give for MRPL1 #2?
total luciferase, z-score: 0.758

How did the screen score MRPL1 #3?
total luciferase, z-score: -0.285

With NDUFC2 #1, how do the results read?
total luciferase, z-score: 0.268

For NDUFC2 #2, what was measured?
total luciferase, z-score: -0.453

Which result is listed for NDUFC2 #3?
total luciferase, z-score: 0.0211

Records above whose target name starts with P or p (3):
PNPT1 #1 → total luciferase, z-score: 0.0423
PNPT1 #2 → total luciferase, z-score: -0.257
PNPT1 #3 → total luciferase, z-score: -0.871
